Experimental data taken from PMC9045721.
These are yes or no findings as the source states them, for the method shown. Some results given as binding are weak or reduced against the parent protein; the word gives no strength. Sequences can lack the tags named with a protein.

By UniProt entry, the sequences of proteins in these tests, tags left out. Where a name states a change or a piece, a line headed by the entry shows the natural chain unless it says otherwise.
UniProt P31941: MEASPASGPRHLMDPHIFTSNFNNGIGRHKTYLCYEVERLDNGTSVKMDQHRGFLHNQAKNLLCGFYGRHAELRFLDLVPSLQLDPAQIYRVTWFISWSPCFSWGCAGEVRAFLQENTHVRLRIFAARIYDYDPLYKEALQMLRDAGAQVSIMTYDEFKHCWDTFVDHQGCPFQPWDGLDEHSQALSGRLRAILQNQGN
UniProt Q9HC16: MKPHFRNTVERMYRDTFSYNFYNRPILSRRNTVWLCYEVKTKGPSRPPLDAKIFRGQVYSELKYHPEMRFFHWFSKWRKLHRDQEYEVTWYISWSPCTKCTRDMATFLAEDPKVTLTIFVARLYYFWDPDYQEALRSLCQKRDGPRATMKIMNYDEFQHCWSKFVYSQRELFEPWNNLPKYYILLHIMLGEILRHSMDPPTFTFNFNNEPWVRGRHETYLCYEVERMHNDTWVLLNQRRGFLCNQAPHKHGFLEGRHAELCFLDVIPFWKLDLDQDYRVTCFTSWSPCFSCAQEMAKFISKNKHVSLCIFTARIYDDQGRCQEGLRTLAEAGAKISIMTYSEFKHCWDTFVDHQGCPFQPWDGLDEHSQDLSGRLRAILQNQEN

Key:
[1] = target: A3A (1-199)-mycHis (human) (UniProt P31941); assay: BLI; Octet RED; A3-mycHis proteins loaded on Ni-NTA biosensors (12.5 ug/ml A3Bctd and A3A, 8 ug/ml A3G); MBP-BORF2 200 to 6.25 nM; 20 mM tris-HCl (pH 8), 300 mM NaCl; 30°C; association 1200 s, dissociation 1800 s; 1:2 binding model; both purified
[2] = target: A3G (1-384)-mycHis (human) (UniProt Q9HC16); assay: as above

B1: MBP-BORF2 (1 to 826) (enzyme, UniProt P03190 1-826)
chain: MATTSHVEHELLSKLIDELKVKANSDPEADVLAGRLLHRLKAESVTHTVAEYLEVFSDKFYDEEFFQMHRDELETRVSAFAQSPAYERIVSSGYLSALRYYDTYLYVGRSGKQESVQHFYMRLAGFCASTTCLYAGLRAALQRARPEIESDMEVFDYYFEHLTSQTVCCSTPFMRFAGVENSTLASCILTTPDLSSEWDVTQALYRHLGRYLFQRAGVGVGVTGAGQDGKHISLLMRMINSHVEYHNYGCKRPVSVAAYMEPWHSQIFKFLETKLPENHERCPGIFTGLFVPELFFKLFRDTPWSDWYLFDPKDAGDLERLYGEEFEREYYRLVTAGKFCGRVSIKSLMFSIVNCAVKAGSPFILLKEACNAHFWRDLQGEAMNAANLCAEVLQPSRKSVATCNLANICLPRCLVNAPLAVRAQRADTQGDELLLALPRLSVTLPGEGAVGDGFSLARLRDATQCATFVVACSILQGSPTYDSRDMASMGLGVQGLADVFADLGWQYTDPPSRSLNKEIFEHMYFTALCTSSLIGLHTRKIFPGFKQSKYAGGWFHWHDWAGTDLSIPREIWSRLSERIVRDGLFNSQFIALMPTSGCAQVTGCSDAFYPFYANASTKVTNKEEALRPNRSFWRHVRLDDREALNLVGGRVSCLPEALRQRYLRFQTAFDYNQEDLIQMSRDRAPFVDQSQSHSLFLREEDAARASTLANLLVRSYELGLKTIMYYCRIEKAADLGVMECKASAALSVPREEQNERSPAEQMPPRPMEPAQVAGPVDIMSKGPGEGPGGWCVPGGLEVCYKYRQLFSEDDLLETDGFTERACESCQ
With B1 the binding [1] was “binds weakly” and the binding [2] was “binds weakly”.
